PubChem BioAssay AID1224830 – NIAID – 2016
In all, the deposit lists about 18,000 reagents; shown is a part drawn at random. Over the whole deposit, about 2,900 (16%) got an active call. 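Calls are made per well; low scores hint the gene aids the LPS response, high scores that it dampens it.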 Unmarked entries are inactive. Repeated entries: four replicate wells of each siRNA pool.

Aim: 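Host factors that control LPS-induced TNF expression in human macrophages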 (primary screen)
System: human THP-1 monocytic leukaemia cells, TNF dual-luciferase reporter clone, PMA-differentiated to macrophage-like cells
Reagents: siRNA pool against human genes, 50 nM
Timing: LPS for 4 h, given about 3 days after siRNA transfection
Conditions: bacterial LPS (TLR4 ligand), 10 ng/ml
Measurement: 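Ratio of firefly to renilla light, scaled to the plate median and expressed as a robust z-score per replicate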
Reading the numbers: TNF reporter robust z-score: higher = stronger TNF reporter response to LPS
Hit rule: 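Each well counts as active if its z-score is over 2.8 or under -1.5; controls are left without a call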

The first 17 entries as a preview:
| target gene | TNF reporter robust z-score |
| --- | --- |
| MX2 | -0.07 |
| MX2 | -1.03 |
| MX2 | -0.67 |
| MX2 | -0.52 |
| PEX7 | 1.15 |
| PEX7 | 2.35 |
| PEX7 | 0.56 |
| PEX7 | 2.33 |
| CATSPER3 | 0.12 |
| CATSPER3 | -0.65 |
| CATSPER3 | -0.61 |
| CATSPER3 | -0.29 |
| AMPD3 | -0.14 |
| AMPD3 | 1.18 |
| AMPD3 | 0.48 |
| AMPD3 | 0.55 |
| NFKBIA | 1.23 |

The list itself, from the first entry:
| target gene | TNF reporter robust z-score |
| --- | --- |
| MX2 | -0.07 |
| MX2 | -1.03 |
| MX2 | -0.67 |
| MX2 | -0.52 |
| PEX7 | 1.15 |
| PEX7 | 2.35 |
| PEX7 | 0.56 |
| PEX7 | 2.33 |
| CATSPER3 | 0.12 |
| CATSPER3 | -0.65 |
| CATSPER3 | -0.61 |
| CATSPER3 | -0.29 |
| AMPD3 | -0.14 |
| AMPD3 | 1.18 |
| AMPD3 | 0.48 |
| AMPD3 | 0.55 |
| NFKBIA | 1.23 |
| NFKBIA | 2.03 |
| NFKBIA | 1.51 |
| NFKBIA | 1.39 |
| STARD8 | -0.72 |
| STARD8 | -0.43 |
| STARD8 | -0.07 |
| STARD8 | 0.27 |
| HSD11B1L | -0.01 |
| HSD11B1L | 0.09 |
| HSD11B1L | 1.14 |
| HSD11B1L | 0.81 |
| CAPS2 | 3.55 (active) |
| CAPS2 | 5.44 (active) |
| CAPS2 | 0.63 |
| CAPS2 | 0.96 |
| LCT | -0.08 |
| LCT | -0.03 |
| LCT | 0.9 |
| GNPTAB | 1.19 |
| GNPTAB | 1.33 |
| GNPTAB | 1.6 |
| GNPTAB | 1.79 |
| CDK2AP1 | 0.26 |
| CDK2AP1 | 0.56 |
| CDK2AP1 | 0.21 |
| CDK2AP1 | -0.06 |
| ZNF157 | 1.39 |
| ZNF157 | 0.63 |
| ZNF157 | -0.04 |
| ZNF157 | 0.39 |
| OR1J4 | 2.34 |
| OR1J4 | 1.76 |
| OR1J4 | 0.95 |
| OR1J4 | -0.08 |
| APIP | 0.2 |
| APIP | 0.26 |
| APIP | 0.43 |
| APIP | 0.36 |
| ZFYVE26 | -1.15 |
| ZFYVE26 | -0.74 |
| ZFYVE26 | -1.45 |
| ZFYVE26 | -0.64 |
| GPR85 | -0.67 |
| GPR85 | -0.07 |
| GPR85 | -0.4 |
| GPR85 | -0.66 |
| TAGLN2 | -0.14 |
| TAGLN2 | 0.5 |
| TAGLN2 | 0.08 |
| TAGLN2 | -1.09 |
| AMHR2 | -0.93 |
| AMHR2 | -0.76 |
| AMHR2 | -0.52 |
| AMHR2 | -0.06 |
| CLEC9A | -0.24 |
| CLEC9A | -0.23 |
| CLEC9A | -0.32 |
| CLEC9A | 0.61 |
| VCF2 | -1.01 |
| VCF2 | -0.57 |
| VCF2 | -0.75 |
| VCF2 | -0.67 |
| CA4 | -1.44 |
| CA4 | -1.2 |
| CA4 | -1.34 |
| CA4 | -1.52 (active) |
| PLXDC1 | -1 |
| PLXDC1 | -1.78 (active) |
| PLXDC1 | -1.87 (active) |
| PLXDC1 | -1.58 (active) |
| KISS1 | -0.79 |
| KISS1 | -1.28 |
| KISS1 | -1.4 |
| KISS1 | -1.71 (active) |
| TLN1 | -0.99 |
| TLN1 | -0.83 |
| TLN1 | -0.5 |
| TLN1 | -0.13 |
| TP53RK | -0.77 |
| TP53RK | -0.33 |
| TP53RK | 0.03 |
| TP53RK | 0.01 |
| MYO19 | 0.68 |
| MYO19 | -0.22 |
| MYO19 | 1.81 |
| MYO19 | -0.1 |
| RAP1A | -0.19 |
| RAP1A | -1.5 |
| RAP1A | -1.43 |
| RAP1A | -1.02 |
| MRPS6 | 0 |
| MRPS6 | -0.6 |
| MRPS6 | -0.11 |
| MRPS6 | -0.29 |
| DDX31 | 0.58 |
| DDX31 | 0.63 |
| DDX31 | 0.48 |
| DDX31 | 0.99 |
| NUP43 | -1.08 |
| NUP43 | -1.37 |
| NUP43 | -1.28 |
| NUP43 | -1.38 |
| XKRYP7 | 0 |
| XKRYP7 | -0.25 |
| XKRYP7 | -0.86 |
| XKRYP7 | -0.59 |
| LOXL2 | -1.74 (active) |
| LOXL2 | -1.21 |
| LOXL2 | -1.6 (active) |
| LOXL2 | -1.24 |
| ARHGAP32 | 0.36 |
| ARHGAP32 | -1.08 |
| ARHGAP32 | -1.34 |
| ARHGAP32 | -1.45 |
| TNP1 | -0.91 |
| TNP1 | -0.89 |
| TNP1 | -1.5 |
| TNP1 | -0.82 |
| PAK1 | 0.55 |
| PAK1 | 0.65 |
| PAK1 | 0.26 |
| PAK1 | 0.21 |
| PLEKHG5 | -0.07 |
| PLEKHG5 | -0.89 |
| PLEKHG5 | 0.36 |
| PLEKHG5 | -0.15 |
